Taken from: PubChem BioAssay AID686943 (Drosophila RNAi Screening Center, 2013)
In all, the deposit lists about 23,000 reagents; shown is an unselected part of those with a known target gene and a result. 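Extra replicates exist only for a retested subset of genes; insulin dose and duration not given; both raised and lowered dpERK matter.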 The numbers tell different reagents against one gene apart. Not all columns of the deposit are shown. Reagent sequences are not shown. Not given: the amount of reagent, the time to read-out.

- Assay: 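Search across the genome for regulators of signalling from receptor tyrosine kinase to ERK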 (primary screen)
- Cell system: Drosophila S2R+ haemocyte-like cells expressing YFP-tagged ERK (Rolled)
- Reagent: long dsRNA against Drosophila genes
- Challenge: insulin stimulation versus unstimulated cells; dose and duration not given
- Measurement: 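Antibody staining for doubly phosphorylated ERK divided by ERK-YFP signal, as plate z-scores, in insulin-treated and untreated cells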
- Reading the numbers: replicate 1, z-score of dpERK with insulin: higher = more active ERK per ERK-YFP after insulin

With shv (GeneID 33220) #1, what does the deposit list?
replicate 1, z-score of dpERK with insulin: 1.14

With shv (GeneID 33220) #2, what was measured?
replicate 1, z-score of dpERK with insulin: -0.38

How did the screen score CG43133 (GeneID 12798151)?
replicate 1, z-score of dpERK with insulin: 0.16

How did the screen score zf30C (GeneID 34292)?
replicate 1, z-score of dpERK with insulin: -1.64

How did the screen score lms (GeneID 37322)?
replicate 1, z-score of dpERK with insulin: 0.28

What is on record for CG15425 (GeneID 33630)?
replicate 1, z-score of dpERK with insulin: 0.18

With CG30466 (GeneID 246629), what does the deposit list?
replicate 1, z-score of dpERK with insulin: 0.37

Which result is listed for Polr1H (GeneID 42563)?
replicate 1, z-score of dpERK with insulin: -0.15

How did the screen score RpS15 (GeneID 36851)?
replicate 1, z-score of dpERK with insulin: 0.48

With Mad1 (GeneID 35954), how do the results read?
replicate 1, z-score of dpERK with insulin: 0.52

What is on record for TwdlT (GeneID 44790) #1?
replicate 1, z-score of dpERK with insulin: 0.02

How did the screen score TwdlT (GeneID 44790) #2?
replicate 1, z-score of dpERK with insulin: 0.62

With CG16723 (GeneID 42781), what was measured?
replicate 1, z-score of dpERK with insulin: 0.87

In a second layout: 5 of the entries above
{"predicted target":"lms (GeneID 37322)","reagent no.":1,"replicate 1, z-score of dpERK with insulin":0.28}
{"predicted target":"CG15425 (GeneID 33630)","reagent no.":1,"replicate 1, z-score of dpERK with insulin":0.18}
{"predicted target":"CG30466 (GeneID 246629)","reagent no.":1,"replicate 1, z-score of dpERK with insulin":0.37}
{"predicted target":"Polr1H (GeneID 42563)","reagent no.":1,"replicate 1, z-score of dpERK with insulin":-0.15}
{"predicted target":"RpS15 (GeneID 36851)","reagent no.":1,"replicate 1, z-score of dpERK with insulin":0.48}

Next records:
What is on record for CPT2 (GeneID 38355)?
replicate 1, z-score of dpERK with insulin: 0.81

Which result is listed for RpS19a (GeneID 32635)?
replicate 1, z-score of dpERK with insulin: 0.86

For CG5687 (GeneID 38255), what was measured?
replicate 1, z-score of dpERK with insulin: 1.83

For CG4477 (GeneID 39058), how do the results read?
replicate 1, z-score of dpERK with insulin: 0.7

What is on record for Cyp301a1 (GeneID 36378)?
replicate 1, z-score of dpERK with insulin: 0.63

What is on record for Kah (GeneID 38072) #1?
replicate 1, z-score of dpERK with insulin: 0.32

For Kah (GeneID 38072) #2, what was measured?
replicate 1, z-score of dpERK with insulin: -0.38

With Ldaf1 (GeneID 326240), what does the deposit list?
replicate 1, z-score of dpERK with insulin: 0.25

What is on record for SuUR (GeneID 45739)?
replicate 1, z-score of dpERK with insulin: 0.38

With PIG-L (GeneID 42388), what was measured?
replicate 1, z-score of dpERK with insulin: 0.75

With CG4554 (GeneID 37570), how do the results read?
replicate 1, z-score of dpERK with insulin: -0.04

What is on record for Usp30 (GeneID 31519)?
replicate 1, z-score of dpERK with insulin: -0.6

For CG14234 (GeneID 32988) #1, what was measured?
replicate 1, z-score of dpERK with insulin: -0.29

With CG14234 (GeneID 32988) #2, what was measured?
replicate 1, z-score of dpERK with insulin: -0.81

How did the screen score CG31807 (GeneID 318953)?
replicate 1, z-score of dpERK with insulin: 0.57

With CG32651 (GeneID 318140), how do the results read?
replicate 1, z-score of dpERK with insulin: 0.69

For CG33475 (GeneID 2768724), what does the deposit list?
replicate 1, z-score of dpERK with insulin: 0.27

With Obp8a (GeneID 31860), what was measured?
replicate 1, z-score of dpERK with insulin: -0.18
